Measured values taken from paper PMC12101078.
Results are given in words; binding and its absence hold for the method and conditions named. In cells and extracts the contact can be indirect. A result given as binding can be weak or reduced; the word gives no strength. For some of these results: Sequences can lack the tags named with a protein.

Chains of the proteins cited; added tags and fusions are not shown. Lines headed by an entry give the natural chain unless they say otherwise; changes in a name come on top.
UniProt Q03370: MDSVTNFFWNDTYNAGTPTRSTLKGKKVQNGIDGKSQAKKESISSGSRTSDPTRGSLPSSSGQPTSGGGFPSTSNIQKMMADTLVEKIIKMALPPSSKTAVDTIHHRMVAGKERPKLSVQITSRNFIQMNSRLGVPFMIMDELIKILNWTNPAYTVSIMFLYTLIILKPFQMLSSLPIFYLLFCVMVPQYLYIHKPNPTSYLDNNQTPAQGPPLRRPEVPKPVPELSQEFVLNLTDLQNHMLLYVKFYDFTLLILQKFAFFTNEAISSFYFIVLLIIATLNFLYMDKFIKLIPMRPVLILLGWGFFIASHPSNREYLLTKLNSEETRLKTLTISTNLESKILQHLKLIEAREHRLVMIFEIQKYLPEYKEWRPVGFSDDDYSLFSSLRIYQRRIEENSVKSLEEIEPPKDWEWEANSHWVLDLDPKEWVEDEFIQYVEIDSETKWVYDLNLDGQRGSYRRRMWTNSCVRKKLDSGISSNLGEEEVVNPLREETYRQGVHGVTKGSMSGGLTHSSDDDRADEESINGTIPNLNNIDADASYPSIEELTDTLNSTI

B1: Pex30 (protein, UniProt Q06169 1-523)
chain: MSGNTTNVHETRAKFAETLQPRIGGNTTKVIRAALEKNEAESGVSEDNDNGSLEKVNVATSPLLTSTPPTISKALVKLYPYLILIDEFLNVVTWTGKNIWSSVLMLCLFITTVEYFETLVKYFGHLAIIAILWGYSLLDNYIEGTLSSSPTLEDIALLMNRVSLKSDILLSPMVNLGTQDIQRLLYTTVILSPIYVMITWLLLPPRSLMLMVGMFLLTYHSPWSKVARRLLWKFKIVRLLVFYVTGLDLGGINKDQGIFATVQKQVKKLASTENSNGVLSDSKPIRFTYVLYENQRRWLGIGWKPSMLSYERTPWTDEFLNEAPSPENFHLPEETNTMVWRWVDKTWRLDMTNDGAIQVPNSKARTSADPSPDEGFIYYDNTWKKPSKEDSFSKYTRRRRWVRTAELVKTSDFDESVINSNRNSAIEQKVEENSTNGLTAEQELGSNKQEKDNAKKVGEPTTEETKEFAEASNINEGEFERISSTDEEVLKSRARDRLAKVLDDTEEKEQSNPTIGRDSKKAV

Key:
Test in all cases: co-IP; crude membrane fraction of yeast solubilised with 1% DMNG in 50 mM Tris-HCl pH 7.4, 200 mM NaCl, 1 mM EDTA; tagged protein isolated 2 h at 4°C on anti-HA, anti-V5 or anti-Myc magnetic beads, washed with 0.02% DMNG; Pex30 detected by immunoblot with anti-Pex30
[1] = target: T1, Pex28-13xMyc (S. cerevisiae) (UniProt P38848)
T1 sequence: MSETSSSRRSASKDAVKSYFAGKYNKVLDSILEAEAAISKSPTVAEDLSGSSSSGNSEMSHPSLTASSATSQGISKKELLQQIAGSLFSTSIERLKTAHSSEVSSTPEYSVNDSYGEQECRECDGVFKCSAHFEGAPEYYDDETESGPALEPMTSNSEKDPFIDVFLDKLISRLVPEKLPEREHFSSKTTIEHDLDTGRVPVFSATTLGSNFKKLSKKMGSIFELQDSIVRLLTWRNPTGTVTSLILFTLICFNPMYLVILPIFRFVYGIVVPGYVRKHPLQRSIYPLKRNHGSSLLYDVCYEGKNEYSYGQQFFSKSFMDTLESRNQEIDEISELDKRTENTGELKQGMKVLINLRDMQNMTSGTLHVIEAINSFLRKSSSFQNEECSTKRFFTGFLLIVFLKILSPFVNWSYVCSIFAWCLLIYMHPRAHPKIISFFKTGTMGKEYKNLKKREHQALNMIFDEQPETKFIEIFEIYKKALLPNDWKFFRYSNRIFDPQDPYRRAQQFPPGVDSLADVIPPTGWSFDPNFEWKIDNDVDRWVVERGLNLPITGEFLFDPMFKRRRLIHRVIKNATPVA

[2] = target: T2, Pex32-3xHA (S. cerevisiae) (UniProt P38292)
T2 sequence: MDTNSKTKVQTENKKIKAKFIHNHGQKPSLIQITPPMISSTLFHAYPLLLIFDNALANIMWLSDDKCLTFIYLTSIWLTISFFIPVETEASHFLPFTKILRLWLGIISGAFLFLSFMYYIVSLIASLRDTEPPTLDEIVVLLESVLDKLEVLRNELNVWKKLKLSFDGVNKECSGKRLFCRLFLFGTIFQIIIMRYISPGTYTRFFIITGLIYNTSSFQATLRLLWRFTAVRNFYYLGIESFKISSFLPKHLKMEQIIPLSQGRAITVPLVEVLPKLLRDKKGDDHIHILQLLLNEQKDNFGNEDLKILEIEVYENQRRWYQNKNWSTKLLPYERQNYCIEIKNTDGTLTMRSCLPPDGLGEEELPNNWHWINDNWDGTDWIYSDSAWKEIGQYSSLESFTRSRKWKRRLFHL

[3] = target: Pex29^DysFΔ (S. cerevisiae) (UniProt Q03370)
[4] = target: Pex32^DysFΔ (S. cerevisiae) (UniProt P38292)

Row | Molecule | binding [1] | binding [2] | binding [3] | binding [4]
1 | Pex30^DysFΔ (from UniProt Q06169) | binds | binds | – | –
2 | B1 | – | – | binds | binds
